Data published in PMC10530362, “Light-Sensitive Open Channel Block of Ionotropic Glutamate Receptors by Quaternary Ammonium Azobenzene Derivatives” (International Journal of Molecular Sciences, 2023).

System: T1, calcium-impermeable AMPA receptors (native, hippocampal CA1 pyramidal neurons)
T1 construct: gene Gria2; native GluA2(R)-containing heteromers in isolated rat CA1 pyramidal neurons
Assay: whole-cell patch clamp, kainate-evoked current
Assay type: cell-based, Rattus norvegicus
Conditions: dark, -70 mV, 100 µM kainate, pH 7.4, 22-24 °C

Row | Structure (SMILES) | Idrug/Icontrol at 30 μM
1 | C=CC(=O)Nc1ccc(/N=N/c2ccc(NC(=O)C[N+](CC)(CC)CC)cc2)cc1 [AAQ] | 0.77 ± 0.05
2 | CC[N+](CC)(CC)CC(=O)Nc1ccc(N=Nc2ccc(NC(=O)C[N+](CC)(CC)CC)cc2)cc1 [QAQ] | 0.89 ± 0.05
